Experimental findings from paper PMC12667536 are described below.

Amino acid sequences for entries named in this document (tags omitted). A change or cut given only in a name is not applied to a line headed by its entry.
UniProt P05556: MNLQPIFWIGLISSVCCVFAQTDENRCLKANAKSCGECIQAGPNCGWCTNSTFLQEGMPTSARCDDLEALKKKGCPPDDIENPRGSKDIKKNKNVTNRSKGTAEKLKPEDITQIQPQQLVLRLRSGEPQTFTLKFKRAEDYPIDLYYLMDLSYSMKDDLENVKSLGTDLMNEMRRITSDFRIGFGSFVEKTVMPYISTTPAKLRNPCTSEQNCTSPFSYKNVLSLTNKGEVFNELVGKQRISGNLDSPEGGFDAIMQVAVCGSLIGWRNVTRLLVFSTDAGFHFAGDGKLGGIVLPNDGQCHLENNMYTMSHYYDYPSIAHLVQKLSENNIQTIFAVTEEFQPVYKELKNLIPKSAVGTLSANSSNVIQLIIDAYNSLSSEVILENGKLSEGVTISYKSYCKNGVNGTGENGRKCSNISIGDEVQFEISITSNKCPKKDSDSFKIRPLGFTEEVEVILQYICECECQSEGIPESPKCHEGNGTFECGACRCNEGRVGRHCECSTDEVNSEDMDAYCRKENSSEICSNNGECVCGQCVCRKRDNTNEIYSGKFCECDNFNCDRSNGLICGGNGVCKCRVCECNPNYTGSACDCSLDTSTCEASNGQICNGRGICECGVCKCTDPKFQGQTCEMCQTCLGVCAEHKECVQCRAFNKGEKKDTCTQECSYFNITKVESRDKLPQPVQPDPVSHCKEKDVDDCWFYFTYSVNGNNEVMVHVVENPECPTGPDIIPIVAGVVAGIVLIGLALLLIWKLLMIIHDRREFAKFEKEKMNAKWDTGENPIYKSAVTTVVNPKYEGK

Results are given in words; binding and its absence hold for the method and conditions named. In cells and extracts the contact can be indirect. Some entries that bind do so weakly or less than the wild type. Where a sequence is shown, tags or fusion partners need not be part of it.

The target in test [1] is T1, Flag-GCWT (wild type group-specific component protein, vitamin D binding protein) (UniProt P02774).
T1 sequence: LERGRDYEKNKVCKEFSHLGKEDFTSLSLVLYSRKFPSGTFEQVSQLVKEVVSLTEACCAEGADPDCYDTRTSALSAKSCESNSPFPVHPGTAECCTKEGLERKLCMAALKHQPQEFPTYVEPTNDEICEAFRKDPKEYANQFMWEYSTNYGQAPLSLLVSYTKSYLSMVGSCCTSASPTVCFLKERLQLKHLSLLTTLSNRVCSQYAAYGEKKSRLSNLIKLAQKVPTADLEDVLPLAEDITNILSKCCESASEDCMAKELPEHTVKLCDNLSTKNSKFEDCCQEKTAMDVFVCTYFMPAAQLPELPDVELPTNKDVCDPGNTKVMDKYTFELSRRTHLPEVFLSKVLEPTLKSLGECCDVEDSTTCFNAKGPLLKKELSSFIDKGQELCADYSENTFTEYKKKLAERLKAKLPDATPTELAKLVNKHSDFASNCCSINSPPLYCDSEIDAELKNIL
As to the kind of experiment: co-IP; shGCWT-2 Patu8988 and PANC-1 cells overexpressing Flag-GCWT or Flag-GCDEL; lysate (IP lysis buffer) incubated with anti-Flag magnetic beads overnight at 4 °C, PBST washes; immunoblot; wild type cells as negative control. (In general: In western blotting, separated proteins are transferred to a membrane and probed.)

The target in test [2] is T1, Flag-GCWT (wild type group-specific component protein, vitamin D binding protein). In words: co-IP; N008 human primary Schwann cells; lysate (IP lysis buffer) incubated with anti-Flag magnetic beads overnight at 4 °C, PBST washes; immunoblot.

For the substance “integrin β1 (ITGB1) (from UniProt P05556 21-798) (receptor)”, the binding entry in test [1] and in test [2] was “binds” each time.
